Source: PubChem BioAssay AID1259308 (NCATS, 2017)
This is an unselected part of about 59,000 reagents tested. About 1,510 of all reagents (2.6%) count as active. 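Calls use total luciferase alone and ignore viability, so some active siRNAs may act by altering cell number.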 Reagents against one gene are numbered here. Not all columns of the deposit are shown.

- Assay: 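Candidate targets for better recombinant protein yield in mammalian cells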 (primary screen)
- System: human HEK293 embryonic kidney cells stably expressing firefly luciferase (HEK-CMV-Luc2-Hygro)
- Knock-down reagent: single siRNA against human genes, 0.8 pmol siRNA per well
- Timing: 72 h
- Detection: 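Reporter luminescence and viable-cell signal on separate replicate plates, given as percent of non-targeting control and median/MAD z-scores, plus per-cell luciferase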
- Direction: total luciferase, z-score and total luciferase, % of control: higher = more reporter protein produced
- Hit rule: 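An siRNA counts as active if its total luciferase robust z-score exceeds 3; genes with two or more such siRNAs out of three were retested with fresh siRNAs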
- Meaning of the calls: active = raised luciferase; inactive = no rise

EIF1AY (eukaryotic translation initiation factor 1A Y-linked) #1
- total luciferase, z-score: 0.286
- total luciferase, % of control: 87.6
- Outcome: inactive

EIF1AY (eukaryotic translation initiation factor 1A Y-linked) #2
- total luciferase, z-score: 0.0476
- total luciferase, % of control: 82.8
- Outcome: inactive

EIF1AY (eukaryotic translation initiation factor 1A Y-linked) #3
- total luciferase, z-score: 1.67
- total luciferase, % of control: 115
- Outcome: inactive

RAB19 (RAB19, member RAS oncogene family) #1
- total luciferase, z-score: -0.28
- total luciferase, % of control: 76.3
- Outcome: inactive

RAB19 (RAB19, member RAS oncogene family) #2
- total luciferase, z-score: -0.313
- total luciferase, % of control: 75.7
- Outcome: inactive

RAB19 (RAB19, member RAS oncogene family) #3
- total luciferase, z-score: -1.36
- total luciferase, % of control: 54.8
- Outcome: inactive

ENTPD3 (ectonucleoside triphosphate diphosphohydrolase 3) #1
- total luciferase, z-score: 0.988
- total luciferase, % of control: 102
- Outcome: inactive

ENTPD3 (ectonucleoside triphosphate diphosphohydrolase 3) #2
- total luciferase, z-score: 0.467
- total luciferase, % of control: 91.2
- Outcome: inactive

ENTPD3 (ectonucleoside triphosphate diphosphohydrolase 3) #3
- total luciferase, z-score: 0.369
- total luciferase, % of control: 89.2
- Outcome: inactive

Quoted from the listing, 3 entries:
EIF1AY (eukaryotic translation initiation factor 1A Y-linked) #1
- total luciferase, z-score: 0.286
- total luciferase, % of control: 87.6
- Outcome: inactive

EIF1AY (eukaryotic translation initiation factor 1A Y-linked) #2
- total luciferase, z-score: 0.0476
- total luciferase, % of control: 82.8
- Outcome: inactive

EIF1AY (eukaryotic translation initiation factor 1A Y-linked) #3
- total luciferase, z-score: 1.67
- total luciferase, % of control: 115
- Outcome: inactive

The list goes on.
ITGA2B (integrin subunit alpha 2b) #1
- total luciferase, z-score: 0.0421
- total luciferase, % of control: 82.7
- Outcome: inactive

ITGA2B (integrin subunit alpha 2b) #2
- total luciferase, z-score: -0.0614
- total luciferase, % of control: 80.7
- Outcome: inactive

ITGA2B (integrin subunit alpha 2b) #3
- total luciferase, z-score: -0.682
- total luciferase, % of control: 68.3
- Outcome: inactive

HMGB3P24 (high mobility group box 3 pseudogene 24) #1
- total luciferase, z-score: 0.136
- total luciferase, % of control: 84.6
- Outcome: inactive

HMGB3P24 (high mobility group box 3 pseudogene 24) #2
- total luciferase, z-score: -1.6
- total luciferase, % of control: 50.1
- Outcome: inactive

HMGB3P24 (high mobility group box 3 pseudogene 24) #3
- total luciferase, z-score: 1.37
- total luciferase, % of control: 109
- Outcome: inactive

ZNF446 (zinc finger protein 446) #1
- total luciferase, z-score: -0.871
- total luciferase, % of control: 64.6
- Outcome: inactive

ZNF446 (zinc finger protein 446) #2
- total luciferase, z-score: 0.205
- total luciferase, % of control: 86
- Outcome: inactive

ZNF446 (zinc finger protein 446) #3
- total luciferase, z-score: -1.19
- total luciferase, % of control: 58.2
- Outcome: inactive

ATRX (ATRX chromatin remodeler) #1
- total luciferase, z-score: -1.46
- total luciferase, % of control: 52.8
- Outcome: inactive

ATRX (ATRX chromatin remodeler) #2
- total luciferase, z-score: 1.32
- total luciferase, % of control: 108
- Outcome: inactive

ATRX (ATRX chromatin remodeler) #3
- total luciferase, z-score: -0.321
- total luciferase, % of control: 75.5
- Outcome: inactive
